Results are given in words; binding and its absence hold for the method and conditions named. Binding seen in cells or lysates may run through a third protein. Some binding calls cover weakened binding; strength is not graded here.
Tests used:
[1] = molecular target: Flag-tagged Nuf2 (human) (UniProt Q9BZD4); assay: co-IP; anti-Flag antibody and Dynabeads Protein G from lysates of UTA6 Flag-EB1 or UTA6 Flag-Nuf2 cells, 4°C, eluted with 3xFlag peptide, fluorescent immunoblot; cells DMA-arrested (prometaphase) or released from DMA for 45 min (anaphase)
[2] = molecular target: Flag-tagged EB1 (human) (UniProt Q15691); assay: as above

Sequences of proteins named here, by UniProt entry; tags and fusion partners are left off.
UniProt Q9BZD4: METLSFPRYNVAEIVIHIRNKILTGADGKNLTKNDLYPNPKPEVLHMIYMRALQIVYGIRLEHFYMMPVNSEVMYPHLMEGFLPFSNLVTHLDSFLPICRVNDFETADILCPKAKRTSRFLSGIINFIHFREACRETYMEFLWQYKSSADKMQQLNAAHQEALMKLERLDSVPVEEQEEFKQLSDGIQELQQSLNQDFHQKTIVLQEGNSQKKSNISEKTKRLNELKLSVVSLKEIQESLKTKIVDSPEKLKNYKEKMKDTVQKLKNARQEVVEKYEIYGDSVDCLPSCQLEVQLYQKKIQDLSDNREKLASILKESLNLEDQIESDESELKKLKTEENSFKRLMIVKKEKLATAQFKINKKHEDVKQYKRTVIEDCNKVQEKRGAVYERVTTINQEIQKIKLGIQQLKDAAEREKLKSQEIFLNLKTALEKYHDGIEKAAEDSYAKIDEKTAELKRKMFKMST
UniProt Q15691: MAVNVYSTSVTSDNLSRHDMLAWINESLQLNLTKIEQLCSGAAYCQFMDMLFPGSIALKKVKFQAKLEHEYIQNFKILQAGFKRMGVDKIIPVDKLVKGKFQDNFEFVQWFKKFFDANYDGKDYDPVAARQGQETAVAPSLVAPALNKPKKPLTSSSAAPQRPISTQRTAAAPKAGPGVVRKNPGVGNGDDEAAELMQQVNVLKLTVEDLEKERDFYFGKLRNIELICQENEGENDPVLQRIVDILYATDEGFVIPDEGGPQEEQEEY

With “p150 (DCTN1) (from UniProt Q14203-1 1-1278)” the binding [1] was “no binding” and the binding [2] was “binds”.
